# Measured values as given in article PMC543449.
# Amino acid sequences for entries named in this document (tags omitted). Residues count along the entry.
# UniProt P02769, residues 25-607: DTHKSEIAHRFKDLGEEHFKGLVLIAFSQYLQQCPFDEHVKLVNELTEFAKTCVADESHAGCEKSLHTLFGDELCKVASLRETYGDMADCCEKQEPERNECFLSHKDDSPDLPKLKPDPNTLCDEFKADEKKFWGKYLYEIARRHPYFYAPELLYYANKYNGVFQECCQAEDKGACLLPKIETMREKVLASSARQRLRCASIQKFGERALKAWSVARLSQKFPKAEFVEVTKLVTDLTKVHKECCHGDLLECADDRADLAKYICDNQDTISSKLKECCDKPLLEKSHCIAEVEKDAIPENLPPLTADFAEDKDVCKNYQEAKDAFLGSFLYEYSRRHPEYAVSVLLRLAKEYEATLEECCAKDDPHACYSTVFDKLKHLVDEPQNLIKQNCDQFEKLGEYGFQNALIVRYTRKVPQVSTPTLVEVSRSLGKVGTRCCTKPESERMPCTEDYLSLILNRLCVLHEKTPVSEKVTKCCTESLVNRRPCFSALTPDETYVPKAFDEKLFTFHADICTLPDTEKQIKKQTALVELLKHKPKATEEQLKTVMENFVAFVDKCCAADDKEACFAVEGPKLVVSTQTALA
# UniProt P35247, residues 21-375: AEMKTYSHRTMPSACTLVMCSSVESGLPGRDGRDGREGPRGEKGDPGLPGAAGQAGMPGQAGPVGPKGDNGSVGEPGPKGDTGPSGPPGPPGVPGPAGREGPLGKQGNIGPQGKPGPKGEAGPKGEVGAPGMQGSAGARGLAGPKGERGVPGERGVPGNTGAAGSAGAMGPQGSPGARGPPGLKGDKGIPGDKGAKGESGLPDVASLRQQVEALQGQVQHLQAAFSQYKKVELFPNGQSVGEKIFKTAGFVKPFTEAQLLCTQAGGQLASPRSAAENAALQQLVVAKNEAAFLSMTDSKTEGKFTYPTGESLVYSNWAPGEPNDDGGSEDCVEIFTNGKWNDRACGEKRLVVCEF
# These are yes or no findings as the source states them, for the method shown.
# Biological target: bovine serum albumin (bovine) (UniProt P02769)
# Assay: ELISA; BSA coated on microtiter wells (10 μg/ml in 0.1 M NaHCO3 pH 9.6, 0.5 μg/well); 1–10 μg/ml SP-A or SP-D in 20 mM Tris pH 7.4, 0.15 M NaCl, 5 mM CaCl2, 1 mg/ml BSA, 3 h at 37°C; detected with anti-SP-A or anti-SP-D antibody and HRP anti-rabbit IgG; both purified
substance,measurement,value
recombinant human surfactant protein D (SP-D) (from UniProt P35247 21-375),binding,no binding (tested: 1–10 μg/ml)
